Assay results from publication PMC8144413.

Sequences of proteins named here, by UniProt entry; tags and fusion partners are left off.
UniProt O94953: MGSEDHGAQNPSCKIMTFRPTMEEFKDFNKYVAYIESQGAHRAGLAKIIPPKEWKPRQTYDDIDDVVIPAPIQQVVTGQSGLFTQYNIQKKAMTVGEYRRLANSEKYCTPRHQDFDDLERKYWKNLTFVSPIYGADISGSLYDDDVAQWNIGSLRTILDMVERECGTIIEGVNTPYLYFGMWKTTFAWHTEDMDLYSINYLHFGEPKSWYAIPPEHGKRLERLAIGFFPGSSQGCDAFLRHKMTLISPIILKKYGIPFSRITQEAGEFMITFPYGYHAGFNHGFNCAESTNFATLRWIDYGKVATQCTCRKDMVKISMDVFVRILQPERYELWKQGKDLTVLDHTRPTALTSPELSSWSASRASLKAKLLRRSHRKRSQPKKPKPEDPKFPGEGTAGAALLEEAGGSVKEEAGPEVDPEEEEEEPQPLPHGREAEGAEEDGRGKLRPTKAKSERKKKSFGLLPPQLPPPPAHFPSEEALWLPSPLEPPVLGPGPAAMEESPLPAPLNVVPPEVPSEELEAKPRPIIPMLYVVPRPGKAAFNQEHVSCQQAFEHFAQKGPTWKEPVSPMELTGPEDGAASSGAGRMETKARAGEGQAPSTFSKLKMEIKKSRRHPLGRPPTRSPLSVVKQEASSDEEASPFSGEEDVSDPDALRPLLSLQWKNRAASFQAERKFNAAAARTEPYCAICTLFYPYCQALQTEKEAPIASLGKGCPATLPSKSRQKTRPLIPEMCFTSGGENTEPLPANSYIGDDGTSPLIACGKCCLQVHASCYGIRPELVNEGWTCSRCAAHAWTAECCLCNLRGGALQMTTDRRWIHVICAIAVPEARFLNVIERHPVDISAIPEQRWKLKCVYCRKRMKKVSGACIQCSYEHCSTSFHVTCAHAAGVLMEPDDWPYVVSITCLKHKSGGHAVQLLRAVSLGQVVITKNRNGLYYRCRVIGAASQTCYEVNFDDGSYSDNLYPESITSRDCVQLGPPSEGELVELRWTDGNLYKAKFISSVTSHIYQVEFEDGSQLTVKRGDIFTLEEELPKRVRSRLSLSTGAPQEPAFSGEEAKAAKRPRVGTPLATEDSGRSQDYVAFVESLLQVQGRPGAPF

Target: KDM4B fused to FLAG and HA epitope tags (stably expressed in HeLa cells) (UniProt O94953)
Test: affinity purification with mass spectrometry; nuclear extract of HeLa S3 cells expressing FLAG-KDM4B; Q-Sepharose, heparin Sepharose, DEAE Sepharose, then M2 agarose; copurified proteins analysed by tandem mass spectrometry

binding: binds
B1: CCAR1 (endogenous, HeLa) (protein, UniProt Q8IX12 1-1150)
chain: MAQFGGQKNPPWATQFTATAVSQPAALGVQQPSLLGASPTIYTQQTALAAAGLTTQTPANYQLTQTAALQQQAAAAAAALQQQYSQPQQALYSVQQQLQQPQQTLLTQPAVALPTSLSLSTPQPTAQITVSYPTPRSSQQQTQPQKQRVFTGVVTKLHDTFGFVDEDVFFQLSAVKGKTPQVGDRVLVEATYNPNMPFKWNAQRIQTLPNQNQSQTQPLLKTPPAVLQPIAPQTTFGVQTQPQPQSLLQAQISAASITPLLQTQPQPLLQQPQQKAGLLQPPVRIVSQPQPARRLDPPSRFSGRNDRGDQVPNRKDDRSRERERERRRSRERSPQRKRSRERSPRRERERSPRRVRRVVPRYTVQFSKFSLDCPSCDMMELRRRYQNLYIPSDFFDAQFTWVDAFPLSRPFQLGNYCNFYVMHREVESLEKNMAILDPPDADHLYSAKVMLMASPSMEDLYHKSCALAEDPQELRDGFQHPARLVKFLVGMKGKDEAMAIGGHWSPSLDGPDPEKDPSVLIKTAIRCCKALTGIDLSVCTQWYRFAEIRYHRPEETHKGRTVPAHVETVVLFFPDVWHCLPTRSEWETLSRGYKQQLVEKLQGERKEADGEQDEEEKDDGEAKEISTPTHWSKLDPKTMKVNDLRKELESRALSSKGLKSQLIARLTKQLKVEEQKEEQKELEKSEKEEDEDDDRKSEDDKEEEERKRQEEIERQRRERRYILPDEPAIIVHPNWAAKSGKFDCSIMSLSVLLDYRLEDNKEHSFEVSLFAELFNEMLQRDFGVRIYKSLLSLPEKEDKKEKDKKSKKDERKDKKEERDDETDEPKPKRRKSGDDKDKKEDRDERKKEDKRKDDSKDDDETEEDNNQDEYDPMEAEEAEDEEDDRDEEEMTKRDDKRDINRYCKERPSKDKEKEKTQMITINRDLLMAFVYFDQSHCGYLLEKDLEEILYTLGLHLSRAQVKKLLNKVVLRESCFYRKLTDTSKDEENHEESESLQEDMLGNRLLLPTPTVKQESKDVEENVGLIVYNGAMVDVGSLLQKLEKSEKVRAEVEQKLQLLEEKTDEDEKTILNLENSNKSLSGELREVKKDLSQLQENLKISENMNLQFENQMNKTIRNLSTVMDEIHTVLKKDNVKNEDKDQKSKENGASV

Results are given in words; binding and its absence hold for the method and conditions named. Binding seen in cells or lysates may run through a third protein. A yes stands for co-enrichment or nearness to the bait. Other partners may have been found.
